This is an account of results in article PMC7688313.

Protein sequences, listed by entry. Tags and fused reporters are not part of them.
UniProt B1AVY7: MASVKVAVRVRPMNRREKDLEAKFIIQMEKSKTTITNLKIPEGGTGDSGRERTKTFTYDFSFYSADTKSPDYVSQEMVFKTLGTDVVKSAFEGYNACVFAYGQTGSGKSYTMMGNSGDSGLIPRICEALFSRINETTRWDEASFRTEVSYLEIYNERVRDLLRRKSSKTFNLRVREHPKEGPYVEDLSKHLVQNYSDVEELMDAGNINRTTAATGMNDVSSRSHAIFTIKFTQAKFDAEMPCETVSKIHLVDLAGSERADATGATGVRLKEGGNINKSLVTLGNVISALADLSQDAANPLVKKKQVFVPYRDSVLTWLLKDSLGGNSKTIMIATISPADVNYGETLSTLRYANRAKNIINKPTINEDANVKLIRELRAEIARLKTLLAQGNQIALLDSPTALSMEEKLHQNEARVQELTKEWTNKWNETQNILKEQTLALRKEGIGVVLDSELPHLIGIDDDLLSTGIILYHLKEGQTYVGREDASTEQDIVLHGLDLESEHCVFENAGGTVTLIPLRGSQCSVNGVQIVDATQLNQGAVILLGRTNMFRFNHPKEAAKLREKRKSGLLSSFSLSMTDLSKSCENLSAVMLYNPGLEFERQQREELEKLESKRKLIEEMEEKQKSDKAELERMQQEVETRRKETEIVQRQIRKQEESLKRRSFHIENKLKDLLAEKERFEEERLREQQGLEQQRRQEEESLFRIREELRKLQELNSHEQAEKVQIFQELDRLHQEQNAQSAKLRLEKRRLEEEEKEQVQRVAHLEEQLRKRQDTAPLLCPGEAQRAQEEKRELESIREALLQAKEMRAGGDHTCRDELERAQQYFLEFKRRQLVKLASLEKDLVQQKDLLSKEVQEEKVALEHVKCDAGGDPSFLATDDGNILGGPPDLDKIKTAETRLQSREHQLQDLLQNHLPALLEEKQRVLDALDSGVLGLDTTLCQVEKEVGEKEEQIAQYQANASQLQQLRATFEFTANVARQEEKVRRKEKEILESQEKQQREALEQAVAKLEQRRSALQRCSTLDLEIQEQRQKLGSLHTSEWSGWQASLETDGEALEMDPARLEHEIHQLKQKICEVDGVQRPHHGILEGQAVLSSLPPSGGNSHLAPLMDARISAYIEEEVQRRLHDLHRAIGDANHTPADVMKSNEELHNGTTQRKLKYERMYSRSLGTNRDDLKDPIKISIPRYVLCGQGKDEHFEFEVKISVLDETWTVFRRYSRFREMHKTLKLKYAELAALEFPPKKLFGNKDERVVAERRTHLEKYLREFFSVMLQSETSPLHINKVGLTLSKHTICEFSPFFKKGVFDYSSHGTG
UniProt Q9EQW7: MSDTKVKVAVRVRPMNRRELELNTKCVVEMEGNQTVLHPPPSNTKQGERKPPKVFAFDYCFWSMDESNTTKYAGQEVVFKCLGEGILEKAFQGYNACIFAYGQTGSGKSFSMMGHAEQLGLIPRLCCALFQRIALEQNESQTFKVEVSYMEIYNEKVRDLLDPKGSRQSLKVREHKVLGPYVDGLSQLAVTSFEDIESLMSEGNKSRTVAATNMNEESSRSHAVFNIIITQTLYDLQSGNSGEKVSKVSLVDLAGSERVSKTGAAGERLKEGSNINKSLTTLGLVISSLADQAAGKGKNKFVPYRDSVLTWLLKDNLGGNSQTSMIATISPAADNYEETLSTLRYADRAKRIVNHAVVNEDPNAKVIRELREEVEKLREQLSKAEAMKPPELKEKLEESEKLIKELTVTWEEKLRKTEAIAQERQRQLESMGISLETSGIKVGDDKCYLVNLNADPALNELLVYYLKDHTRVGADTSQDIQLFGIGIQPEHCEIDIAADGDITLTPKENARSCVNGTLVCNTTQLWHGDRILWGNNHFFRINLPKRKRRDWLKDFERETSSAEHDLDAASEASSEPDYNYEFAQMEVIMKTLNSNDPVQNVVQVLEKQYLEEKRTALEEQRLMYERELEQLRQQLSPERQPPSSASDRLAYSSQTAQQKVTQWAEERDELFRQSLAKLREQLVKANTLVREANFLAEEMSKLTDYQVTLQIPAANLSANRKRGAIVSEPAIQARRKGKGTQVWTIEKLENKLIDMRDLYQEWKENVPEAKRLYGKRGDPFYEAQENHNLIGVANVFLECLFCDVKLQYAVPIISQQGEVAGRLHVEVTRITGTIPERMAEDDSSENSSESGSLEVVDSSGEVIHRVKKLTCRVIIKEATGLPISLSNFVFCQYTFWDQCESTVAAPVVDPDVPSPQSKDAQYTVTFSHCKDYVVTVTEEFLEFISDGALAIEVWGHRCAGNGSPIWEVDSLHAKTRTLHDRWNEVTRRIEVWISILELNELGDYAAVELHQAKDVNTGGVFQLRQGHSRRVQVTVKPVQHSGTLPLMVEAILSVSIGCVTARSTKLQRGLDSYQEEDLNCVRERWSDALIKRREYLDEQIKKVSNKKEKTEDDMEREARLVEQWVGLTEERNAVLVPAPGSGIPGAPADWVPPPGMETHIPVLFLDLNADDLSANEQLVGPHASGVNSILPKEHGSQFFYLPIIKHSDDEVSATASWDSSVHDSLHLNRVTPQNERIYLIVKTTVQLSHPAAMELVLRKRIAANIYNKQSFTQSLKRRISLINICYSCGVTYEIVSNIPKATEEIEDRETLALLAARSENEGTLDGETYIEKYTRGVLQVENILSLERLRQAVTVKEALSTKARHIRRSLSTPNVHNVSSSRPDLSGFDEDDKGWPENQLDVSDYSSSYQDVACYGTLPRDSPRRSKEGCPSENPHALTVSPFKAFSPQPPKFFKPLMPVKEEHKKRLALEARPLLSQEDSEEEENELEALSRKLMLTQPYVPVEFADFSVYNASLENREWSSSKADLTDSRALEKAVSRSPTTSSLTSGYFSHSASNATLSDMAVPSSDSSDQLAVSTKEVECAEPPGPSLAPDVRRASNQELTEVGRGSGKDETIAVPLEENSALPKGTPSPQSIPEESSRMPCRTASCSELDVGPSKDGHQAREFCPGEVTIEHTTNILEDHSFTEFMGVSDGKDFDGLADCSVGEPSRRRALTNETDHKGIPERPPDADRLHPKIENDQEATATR

Results are given in words; binding and its absence hold for the method and conditions named. In cells and extracts the contact can be indirect. Some entries that bind do so weakly or less than the wild type. Tags and fused reporters may be left off the sequences shown.

The target in assay [1] is GST-CD (cytoplasmic domain of LDLR fused to GST) (mouse) (UniProt P35951). In words: pull-down; GST-CD as bait, BLOS1-Myc in HEK293T cell lysate; immunoblotting; only the target purified. For orientation: A western blot detects proteins with antibodies after separation by electrophoresis.
The next assay deals with KIF16B-FLAG (mouse) (UniProt B1AVY7). In words: co-IP; HEK293T cells co-transfected for 48 to 72 hr; whole cell lysate (50 mM Tris-HCl pH 7.0, 150 mM NaCl, 1 mM EDTA, 1% Triton X-100) incubated with anti-FLAG M2 agarose beads overnight at 4°C, no cross-linking; immunoblotting.
The next assay deals with KIF13A-FLAG (mouse) (UniProt Q9EQW7). The assay is described as above.
A further assay deals with T1, KIF3B-FLAG (mouse) (UniProt Q61771).
T1 sequence: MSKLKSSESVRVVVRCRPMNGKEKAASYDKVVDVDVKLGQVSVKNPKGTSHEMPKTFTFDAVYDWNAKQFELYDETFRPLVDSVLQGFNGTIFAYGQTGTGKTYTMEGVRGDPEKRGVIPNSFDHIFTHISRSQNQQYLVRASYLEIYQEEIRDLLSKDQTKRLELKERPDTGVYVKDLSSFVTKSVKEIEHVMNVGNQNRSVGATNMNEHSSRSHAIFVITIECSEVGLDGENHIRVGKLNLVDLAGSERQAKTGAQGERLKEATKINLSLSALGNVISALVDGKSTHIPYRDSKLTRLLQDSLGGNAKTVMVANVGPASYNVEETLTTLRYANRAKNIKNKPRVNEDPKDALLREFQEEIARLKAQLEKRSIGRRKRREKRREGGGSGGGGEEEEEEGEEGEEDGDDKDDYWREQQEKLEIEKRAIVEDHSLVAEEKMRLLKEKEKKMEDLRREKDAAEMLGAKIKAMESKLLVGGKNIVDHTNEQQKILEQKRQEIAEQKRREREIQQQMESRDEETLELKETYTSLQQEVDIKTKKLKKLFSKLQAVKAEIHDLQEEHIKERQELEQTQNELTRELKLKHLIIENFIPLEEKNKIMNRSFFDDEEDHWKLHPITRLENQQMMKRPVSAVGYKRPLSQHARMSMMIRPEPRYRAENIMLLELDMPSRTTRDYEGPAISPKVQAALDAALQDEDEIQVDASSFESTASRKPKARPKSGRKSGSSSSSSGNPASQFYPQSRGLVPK
The description is as above.

B1: BLOS1-Myc (protein, UniProt O55102 1-125)
chain: MLSRLLKEHQAKQNERKELQEKRRREAIAAATCLTEALVDHLNVGVAQAYMNQRKLDHEVKTLQVQAAQFAKQTGQWIGMVENFNQALKEIGDVENWARSIELDMRTIATALEYVYKGQLQSAPS
Take B1: the binding entry in assay [1] is listed as “binds”.

B2: BLOS1-HA (protein, UniProt O55102 1-125)
chain: B1 chain
Take B2: the binding entry is given as “no binding” in the assay with KIF16B-FLAG (mouse), “binds” with KIF13A-FLAG (mouse) and “binds” with KIF3B-FLAG (mouse).
